Earlier results as cited in patent US6482837B1 (priority 1998, dated 2002).

Details: human, in vivo; cited from earlier work

Cc1ccc(O)c([C@H](CCN(C(C)C)C(C)C)c2ccccc2)c1 [Tolterodine]
dose after which altered nearpoint of vision was observed: 12.8 mg | dose after which diminished stimulated salivation was observed: 3.2 mg | dose after which increased heart rate was observed: 6.4 mg | incidence of dry mouth: ~9% | subjects reporting micturition difficulties: Six of 8
